The record followed here is paper PMC2585101.

Construct, isoform or probe ends are uncertain for at least one entry. For part of these data: Negatives hold for the conditions tested. For part of these data: At least one result comes from cells or an extract, where the contact may be indirect.

Data set [1] deals with estrogen receptor alpha (ERα), purified. Put plainly: EMSA (agarose). The note with it: 15 mM Tris, 0.2 mM EDTA, 80 mM KCl, 50 uM Zn chloride, 5 mM MgOAc, 10% glycerol, 4 mM DTT, 1 ug poly dI/dC, 1 ug salmon sperm DNA, 1 ug BSA, 10 pmol DNA, recombinant protein. (In EMSA bound probe runs differently from free probe, usually more slowly.)
The test system is the same in data set [2]. The experiment in a line: competition with a labelled probe. The note with it: 10 uM E2, HeLa nuclear extract, 15 mM Tris, 0.2 mM EDTA, 80 mM KCl, 50 uM Zn chloride, 5 mM MgOAc, 10% glycerol, 4 mM DTT, 1 ug poly dI/dC, 1 ug salmon sperm DNA, 1 ug BSA, 10 pmol DNA, recombinant protein.
The subject of data set [3] is estrogen receptor alpha (ERα), purified + AIB-1 (p160 coactivator), HeLa nuclear extract. Put plainly: agarose gel complex isolation, immunoblot. The note with it: E2, HeLa nuclear extract, ERα antibody, AIB-1 absent without ERα; 15 mM Tris, 0.2 mM EDTA, 80 mM KCl, 50 uM Zn chloride, 5 mM MgOAc, 10% glycerol, 4 mM DTT, 1 ug poly dI/dC, 1 ug salmon sperm DNA, 1 ug BSA, 10 uM E2; 10 pmol DNA; recombinant protein. (In general: A western blot detects proteins with antibodies after separation by electrophoresis.)

In data set [4] the test system is estrogen receptor alpha (ERα), purified. Put plainly: EMSA (agarose), supershift. The note with it: 10 uM E2, HeLa nuclear extract, 15 mM Tris, 0.2 mM EDTA, 80 mM KCl, 50 uM Zn chloride, 5 mM MgOAc, 10% glycerol, 4 mM DTT, 1 ug poly dI/dC, 1 ug salmon sperm DNA, 1 ug BSA, 10 pmol DNA, recombinant protein, label: 32P end label.

Take “CTAGATTACTTCTCATGTTAGACATACTCA / GATCTGAGTATGTCTAACATGAGAAGTAATCTAG [nonspecific (NS) oligo, radiolabeled]”: in data set [1] (E2, HeLa nuclear extract, 10 uM E2, label: 32P), the binding result is “no binding”. For the sequence “CTAGATTACTTCTCATGTTAGACATACTCA / GATCTGAGTATGTCTAACATGAGAAGTAATCTAG [nonspecific (NS) oligo, unlabeled]”, the binding result in data set [2] (10 pmol unlabeled vs 10 pmol ERE probe) was “no binding”. Turning to “GATTAACTGTCCAAAGTCAGGTCACAGTGACCTGATCAAAGTTAATGTAA (double strand) [vitellogenin A2 ERE oligo, unlabeled]”, the binding result in data set [3] and in data set [2] (10 pmol unlabeled vs 10 pmol probe) was “binds” throughout. Turning to “GATTAACTGTCCAAAGTCAGGTCACAGTGACCTGATCAAAGTTAATGTAA (double strand) [vitellogenin A2 ERE oligo]”, the binding result in data set [1] (10 uM E2, no nuclear extract, no discrete complex on agarose gel, label: 32P end label) is listed as “no binding”; in data set [4], “binds”.
